Experimental data taken from doi:10.1101/2025.08.21.671500.
Construct, isoform or probe ends are uncertain for at least one entry. For some assays here: A negative result means that nothing was seen under these conditions. For some assays here: The comparison behind a weaker result is the experiment's own reference, which may not be listed here. For some assays here: At least one verdict was read from the data and is not stated in words by the source.

Chains of the proteins cited; added tags and fusions are not shown. Residues count along the entry.
UniProt P55317, 169-260: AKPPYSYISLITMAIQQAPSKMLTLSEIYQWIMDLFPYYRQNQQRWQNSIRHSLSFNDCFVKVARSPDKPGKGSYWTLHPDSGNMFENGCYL
UniProt Q9Y261, 159-252: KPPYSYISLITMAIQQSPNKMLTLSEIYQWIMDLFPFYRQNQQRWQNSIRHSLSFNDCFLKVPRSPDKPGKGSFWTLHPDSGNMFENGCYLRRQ

Columns and labels:
[1] = molecular target: FOXA1 forkhead domain (UniProt P55317); test: EMSA
[2] = tested on: FOXA1 forkhead domain + FOXA2 forkhead domain, Twin-Strep-tagged; test: EMSA; settings: 200 uM compound T
[3] = molecular target: FOXA2 forkhead domain (UniProt Q9Y261); test: EMSA; settings: 200 uM compound T, PRE or POST
[4] = molecular target: FOXA2 forkhead domain, Twin-Strep-tagged (UniProt Q9Y261); test: EMSA; settings: 400 nM protein
[5] = molecular target: FOXA1 forkhead domain (UniProt P55317); test: BLI; settings: 100 uM compound T, text: disabled from binding
[6] = molecular target: FOXA2 forkhead domain (UniProt Q9Y261); test: BLI; settings: 100 uM compound T, text: disabled from binding

Row | Sequence | binding result ([1]; 200 uM compound T, PRE or POST) | binding result [2] | binding result [3] | binding result ([4]; homodimer) | binding result [1] | binding result [4] | binding result [5] | binding result [6]
1 | CCGCCGTATTTACTGAGTAAATAGCCGCC (double strand) [2C (two canonical motifs separated by 3 nt)] | binds more weakly | binds more weakly | binds more weakly | binds | – | – | – | –
2 | CCGCCGCCGTGTTTACTTTGCCGCCGCC (double strand) [C (canonical FOXA motif)] | binds more weakly | – | binds more weakly | – | binds | binds | – | –
3 | CCGCCGTAAGTAAATATTTACTTAGCCGCC (double strand) [PAL (extended palindromic motif)] | binds more weakly | binds more weakly | binds more weakly | binds | – | – | – | –
4 | GTGTCTCCTGCTCTGTCAGCAGGGCACTGTACTTGCTGAT (double strand) [BLI 40-mer] | – | – | – | – | – | – | no binding | no binding
